# Assay results from the supplement of paper PMC9135407.
# Several values for one entry are separate records, joined by “and”; a condition that tells them apart may be missing. Identical values can stand only once. Counter-ions that a name gives are not always drawn. ± gives the standard deviation of the averaged measurements. The list shows a part of the results. Plates or batches differ in their baseline, so values are only roughly comparable.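 Assay uses culture-activated primary human stellate myofibroblasts; lipid droplet recovery indicates inactivation. Measured: proportion of Hoechst-counted cells over a plate-specific Bodipy cutoff, duplicate wells, DMSO and nortriptyline as per-plate negative and positive controls. A hit scores, control-normalized, above the plate's top-tenth-percentile nortriptyline wells or ranks among its three best wells. Final well concentrations not reported.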
# Tested on: primary human hepatic stellate cells (donor 1)
# Assay: percent Bodipy-positive cells; higher = more lipid droplet accumulation
# Conditions: 48 h
# [1] = library stock concentration: 10 mM
# [2] = library stock concentration: 3.33 mM
# [3] = library stock concentration: 6.3 mM
# [4] = library stock concentration: 1 mM
# [5] = library stock concentration: 80 uM
# [6] = library stock concentration: 400 uM
# [7] = library stock concentration: 2 mM
compound,measurement,setting,value
O=C(O)C1CCNCC1 [Isonipecotic acid],percent Bodipy-positive cells,[1],41.8 ± 12%
CC(=O)OCC(=O)NCCCOc1cccc(CN2CCCCC2)c1 [Roxatidine acetate HCl],percent Bodipy-positive cells,library stock concentration: 5.7 mM,4.94 ± 3.4%
CC(=O)OCC(=O)NCCCOc1cccc(CN2CCCCC2)c1 [Roxatidine Acetate HCl],percent Bodipy-positive cells,,25.3 ± 0.85%
same,percent Bodipy-positive cells,[2],5.88 ± 1%
same,percent Bodipy-positive cells,[1],15.2 ± 11%
CC(=O)OCC(=O)NCCCOc1cccc(CN2CCCCC2)c1,percent Bodipy-positive cells,[1],10.1% and 25%
CS(=O)(=O)c1ccc(-c2nc(-c3ccc(F)cc3)c(-c3ccncc3)[nH]2)cc1,percent Bodipy-positive cells,[2],16.2 ± 5.8%
CCn1cc(C(=O)O)c(=O)c2cc(F)c(N3CCNCC3)nc21 [Enoxacin],percent Bodipy-positive cells,[2],8.57 ± 3.3%
same,percent Bodipy-positive cells,library stock concentration: 6.2 mM,8.49% and 16.2%
CN(C)CC/C=C1/c2ccccc2COc2ccccc21.Cl [Doxepin hydrochloride],percent Bodipy-positive cells,[3],77.9 ± 6.2%
CCCC[C@@H](C)/C=C(C)/C=C(\C)C(=O)NC1=C[C@@](O)(/C=C/C=C/C=C/C(=O)NC2=C(O)CCC2=O)[C@@H]2O[C@@H]2C1=O [Manumycin A],percent Bodipy-positive cells,library stock concentration: 9.1 mM,99.43 ± 0.8%
C[C@H](NCc1ccc(OCc2cccc(F)c2)cc1)C(N)=O [Safinamide Mesylate],percent Bodipy-positive cells,[2],13.2 ± 4.8%
same,percent Bodipy-positive cells,[1],37.4 ± 6.9%
"CC1(C)CCC=[N+]1[O-] [5,5-Dimethyl-1-pyrroline-N-oxide]",percent Bodipy-positive cells,[1],36.8 ± 23%
CCCCCC=CCC=CCC=CCC=CCCCC(=O)SCC(O)CO (stereo not given) [Arachidonoyl-1-thio-Glycerol],percent Bodipy-positive cells,[4],7.56 ± 0.45%
OC[C@@H](O)[C@@H](O)[C@H](O)[C@H](O)CO [Mannitol],percent Bodipy-positive cells,library stock concentration: 11 mM,1.83 ± 0.98%
OC[C@@H](O)[C@@H](O)[C@H](O)[C@H](O)CO [D-Mannitol],percent Bodipy-positive cells,[2],4.67 ± 2.6%
same,percent Bodipy-positive cells,[1],15.8 ± 4.9%
C=CCc1ccc(O)c(OC)c1 [Eugenol],percent Bodipy-positive cells,[1],8.98 ± 3.8%
same,percent Bodipy-positive cells,library stock concentration: 12.2 mM,3.52 ± 2.2%
COc1cc2c(Nc3ccc(NC(=O)c4ccccc4)cc3)ncnc2cc1OCCCN1CCOCC1,percent Bodipy-positive cells,[2],97.8 ± 0.45%
same,percent Bodipy-positive cells,[1],99.017 ± 0.099%
O=C1OC(c2ccc(O)cc2)(c2ccc(O)cc2)c2ccccc21 [Phenolphthalein],percent Bodipy-positive cells,[3],2.89 ± 0.96%
same,percent Bodipy-positive cells,[1],11.4 ± 2.1%
COCCOc1nc(-c2ccc(Cl)c(Cl)c2)n(-c2ccc(NC(=O)CCl)cc2)n1 [MI-2 (MALT1 inhibitor)],percent Bodipy-positive cells,[2],100%
same,percent Bodipy-positive cells,[1],100%
COc1cc(C)c(Sc2cnc(NC(=O)c3ccc(CNC(C)C(C)C)cc3)s2)cc1C(=O)N1CCN(C(C)=O)CC1 (stereo not given),percent Bodipy-positive cells,[1],82 ± 4.9%
CC(=O)N[C@@H](Cc1c[nH]c2ccccc12)C(=O)O [Acetyltryptophan],percent Bodipy-positive cells,[1],36.4 ± 18%
Oc1ccc(C2CNCCc3c2cc(O)c(O)c3Cl)cc1 (stereo not given) [Fenoldopam bromide],percent Bodipy-positive cells,[1],25.2 ± 12%
Oc1ccc(C2CNCCc3c2cc(O)c(O)c3Cl)cc1 (stereo not given) [Fenoldopam hydrochloride],percent Bodipy-positive cells,[1],5.22 ± 4%
Oc1ccc(C2CNCCc3c2cc(O)c(O)c3Cl)cc1 (stereo not given),percent Bodipy-positive cells,[1],8.73 ± 1.9%
CC(C(=O)O)c1cccc(Oc2ccccc2)c1 (stereo not given) [Fenoprofen calcium salt dihydrate],percent Bodipy-positive cells,,8.16 ± 3.1%
CC(C(=O)O)c1cccc(Oc2ccccc2)c1 (stereo not given) [Fenoprofen Calcium],percent Bodipy-positive cells,[2],6.39 ± 0.35%
same,percent Bodipy-positive cells,[1],17.5 ± 9.7%
CC(C(=O)O)c1cccc(Oc2ccccc2)c1 (stereo not given) [Fenoprofen],percent Bodipy-positive cells,library stock concentration: 8.3 mM,8.83% and 16.4%
same,percent Bodipy-positive cells,[1],19.1 ± 4.6%
O=C(O)CN(CCN(CC(=O)O)CC(=O)O)CC(=O)O.[Na+].[Na+].[Na+] [Trisodium ethylenediamine tetracetate],percent Bodipy-positive cells,[1],12.7 ± 3%
CN(C)CCCNC(=O)[C@@H]1C[C@H](CN2CCOCC2)CN(Cc2ccc3ccccc3c2)C1,percent Bodipy-positive cells,[1],91.8 ± 0.83%
"O=P(O)(O)OC1C(O)C(OP(=O)(O)O)C(O)C(OP(=O)(O)O)C1O [D-myo-Inositol-1,3,5-triphosphate (sodium salt)]",percent Bodipy-positive cells,[4],6.02 ± 1.7%
CN1Cc2c(C(=O)OC(C)(C)C)ncn2-c2ccsc2C1=O,percent Bodipy-positive cells,[1],4.12 ± 1.2%
N#C/C(=C\c1ccc(O)c(O)c1)C(=O)Nc1ccccc1 [Tyrphostin AG 494],percent Bodipy-positive cells,[1],29.2 ± 6.7%
N#C/C(=C\c1ccc(O)c(O)c1)C(=O)Nc1ccccc1,percent Bodipy-positive cells,[1],5.25 ± 0.31%
CCCCCCCCCCCCCCCCC/C=C/C(=O)O [.DELTA.2-trans Eicosenoic Acid],percent Bodipy-positive cells,[4],9.46 ± 0.65%
O=C1NC(=O)C(c2ccccc2[N+](=O)[O-])=C1Nc1ccc(O)c(Cl)c1,percent Bodipy-positive cells,[2],12.8 ± 1.1%
CNc1cc2c(Nc3cccc(Br)c3)ncnc2cn1,percent Bodipy-positive cells,[2],12.9 ± 1.6%
same,percent Bodipy-positive cells,[1],12.9 ± 0.84%
CCCc1ncc(C[n+]2ccccc2C)c(N)n1 [Amprolium hydrochloride],percent Bodipy-positive cells,,25.1 ± 5.1%
CCCc1ncc(C[n+]2ccccc2C)c(N)n1 [Amprolium],percent Bodipy-positive cells,[3],1.92 ± 0.9%
same,percent Bodipy-positive cells,[1],8.7 ± 0.29%
CCCc1ncc(C[n+]2ccccc2C)c(N)n1 [Amprolium HCl],percent Bodipy-positive cells,[2],8.96 ± 3.4%
same,percent Bodipy-positive cells,[1],39 ± 2.4%
O=C1NC(=O)/C(=C/c2ccc3nccc(-c4ccncc4)c3c2)S1,percent Bodipy-positive cells,[5],12.6 ± 4.6%
same,percent Bodipy-positive cells,[6],13.5 ± 1.4%
same,percent Bodipy-positive cells,[7],8.81 ± 7.5%
same,percent Bodipy-positive cells,[2],3.55 ± 0.33%
same,percent Bodipy-positive cells,[1],14% and 7.69%
CC(CN1c2ccccc2Sc2ccccc21)N(C)C.Cl (stereo not given) [Promethazine hydrochloride],percent Bodipy-positive cells,[1],85.8 ± 2.1%
CN(C)C/C=C/C(=O)Nc1ccc(C(=O)Nc2cccc(Nc3ncc(Cl)c(-c4c[nH]c5ccccc45)n3)c2)cc1,percent Bodipy-positive cells,[5],83.4 ± 4.5%
same,percent Bodipy-positive cells,[6],88.8 ± 6.5%
same,percent Bodipy-positive cells,[7],99.48 ± 0.74%
same,percent Bodipy-positive cells,[1],87.51 ± 0.47%
O=C1NC(=O)C(c2cnc3ccccn23)=C1c1cn2c3c(cc(F)cc13)CN(C(=O)N1CCCCC1)CC2,percent Bodipy-positive cells,[6],55.5 ± 0.91%
same,percent Bodipy-positive cells,[7],51.7 ± 4.7%
C[C@@H](O)CN(CCN(C[C@@H](C)O)C[C@@H](C)O)C[C@@H](C)O,percent Bodipy-positive cells,[1],33.3 ± 4.8%
Cc1cn[nH]c1 [4-Methylpyrazole hydrochloride],percent Bodipy-positive cells,[1],31.1 ± 7%
Cc1cn[nH]c1 [Fomepizole hydrochloride],percent Bodipy-positive cells,library stock concentration: 16.9 mM,17 ± 8%
Cc1ccc(S(=O)(=O)c2ccc([N+](=O)[O-])o2)cc1,percent Bodipy-positive cells,[2],98.96 ± 0.63%
same,percent Bodipy-positive cells,[1],94.3 ± 2%
COc1cc2ncnc(Sc3nnc(C)s3)c2cc1OC,percent Bodipy-positive cells,[2],46.4 ± 1.2%
Nc1[nH]cnc2ncnc1-2 [Adenine],percent Bodipy-positive cells,[1],40.8 ± 0.66%
Nc1[nH]cnc2ncnc1-2 [Adenine HCl],percent Bodipy-positive cells,[2],11.2 ± 4.7%
same,percent Bodipy-positive cells,[1],19.6 ± 5.9%
CC(=O)Nc1cccc(-n2c(=O)n(C3CC3)c(=O)c3c(Nc4ccc(I)cc4F)n(C)c(=O)c(C)c32)c1,percent Bodipy-positive cells,[5],10.3 ± 4.2%
same,percent Bodipy-positive cells,[6],9.14 ± 4.2%
same,percent Bodipy-positive cells,[7],9.169 ± 0.016%
same,percent Bodipy-positive cells,[2],15 ± 12%
same,percent Bodipy-positive cells,[1],9.41% and 8.43%
C[C@@H](NCCCc1cccc(C(F)(F)F)c1)c1cccc2ccccc12 [Cinacalcet HCl],percent Bodipy-positive cells,[2],40.5 ± 17%
same,percent Bodipy-positive cells,[1],96.5 ± 1.5%
CC(=O)[C@@]1(O)CC[C@H]2[C@@H]3C=C(Cl)C4=CC(=O)[C@@H]5C[C@@H]5[C@]4(C)[C@H]3CC[C@@]21C [Cyproterone],percent Bodipy-positive cells,[1],47.9 ± 2.3%
